# In PubChem BioAssay AID529 (NMMLSC, 2006):
# Chains of the proteins cited; added tags and fusions are not shown.
# UniProt P13612, whole entry, looked up: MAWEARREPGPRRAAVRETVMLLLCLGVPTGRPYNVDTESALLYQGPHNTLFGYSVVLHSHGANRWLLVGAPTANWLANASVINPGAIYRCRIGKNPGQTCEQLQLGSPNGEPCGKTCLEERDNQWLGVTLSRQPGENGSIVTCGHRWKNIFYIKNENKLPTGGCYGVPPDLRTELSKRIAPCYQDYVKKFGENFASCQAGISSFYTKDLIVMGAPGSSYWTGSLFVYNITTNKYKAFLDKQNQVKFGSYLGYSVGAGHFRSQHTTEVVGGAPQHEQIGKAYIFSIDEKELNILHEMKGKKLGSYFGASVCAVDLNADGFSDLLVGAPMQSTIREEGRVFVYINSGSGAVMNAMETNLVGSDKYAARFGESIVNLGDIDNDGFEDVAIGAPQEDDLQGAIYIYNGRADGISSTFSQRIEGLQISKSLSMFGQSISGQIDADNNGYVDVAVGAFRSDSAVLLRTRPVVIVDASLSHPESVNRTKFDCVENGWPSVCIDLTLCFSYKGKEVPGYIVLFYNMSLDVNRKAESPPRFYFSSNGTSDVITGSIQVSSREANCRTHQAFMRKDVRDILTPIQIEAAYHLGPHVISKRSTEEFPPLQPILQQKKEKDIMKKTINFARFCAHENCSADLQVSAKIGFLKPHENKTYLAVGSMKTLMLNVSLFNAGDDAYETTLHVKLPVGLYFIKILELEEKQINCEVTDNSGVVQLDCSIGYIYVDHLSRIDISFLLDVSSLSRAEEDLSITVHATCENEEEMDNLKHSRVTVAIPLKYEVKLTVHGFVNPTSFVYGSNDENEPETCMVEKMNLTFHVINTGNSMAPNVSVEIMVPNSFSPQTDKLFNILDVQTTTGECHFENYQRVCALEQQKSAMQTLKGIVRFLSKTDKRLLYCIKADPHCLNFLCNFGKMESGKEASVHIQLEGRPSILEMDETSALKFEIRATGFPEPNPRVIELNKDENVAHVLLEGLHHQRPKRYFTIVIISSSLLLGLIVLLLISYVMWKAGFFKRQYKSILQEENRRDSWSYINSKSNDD
# Among all 24,000 compounds or so, about 50 (0.2%) were called active. Inconclusive means that the source gave no clear call. Such entries were picked first, then a sample of the others.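 How the source made its calls: active means inhibition above 50%; inconclusive means compound itself fluorescent, judged against control cell fluorescence; inactive means the rest.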
# Molecular target: Integrin alpha-4 (Homo sapiens) (UniProt P13612)
# Assay: blockers of LDV-FITC ligand binding on VLA-4 – Jurkat cells, Mn2+ activated, primary screen (AID 529);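 on inhibition: 0% = Mn2+ stimulated cells lacking compound and 100% = ligand binding without Mn2+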
# Details: LDV-FITC binding with Mn2+, flow cytometry; stronger effect = higher value, screened at 10 µM (by protocol), 100% = Mn2+-driven binding gain fully reversed unless noted
row,SMILES,inhibition
1,CCOc1ccc(-n2cc(C(=O)N3CCN(C)CC3)c3cc(OC)c(OC)cc3c2=O)cc1,inconclusive
2,Cn1c(=O)c2c(nc(OCc3ccccc3)n2C)n(C)c1=O,inactive: -15%
3,OCCN(CCO)c1nc(N2CCCCC2)c2nc(N(CCO)CCO)nc(N3CCCCC3)c2n1,inconclusive
4,Cc1ccc2cc3cc(C(=O)NCCCN4CCc5ccccc5C4)oc3nc2c1,inconclusive
5,COc1ccc(Br)c(C(=O)Nn2c(C)nc3ccccc3c2=O)c1,inconclusive
6,COc1ccc(C(=O)N2CCN(c3ccc(C)cc3)CC2)cc1OC,inconclusive
7,CCc1nnc(NC(=O)COC(=O)CN2C(=O)c3ccccc3C2=O)s1,inconclusive
8,Cc1ccc(C)c(NS(=O)(=O)c2ccc(NC(=O)c3ccco3)cc2)c1,inconclusive
9,O=C(Nc1nc(-c2nc3ccccc3s2)cs1)c1ccc(S(=O)(=O)N2CCOCC2)cc1,inconclusive
10,COc1ccc(OCc2nnc3n2N=C(c2ccc(Br)cc2)CS3)cc1,inconclusive
11,COc1cc(NC(=O)c2cccc3c2C(=O)N(Cc2cccnc2)C3)cc(OC)c1OC,inactive: -11%
12,Cc1ccc(Cn2nnc3c(=O)n(CC(=O)NCc4ccc5c(c4)OCO5)cnc32)cc1,inactive: 3%
13,COc1ccccc1-c1cc(C(F)(F)F)nc(S(=O)(=O)CCCC(=O)Nc2cc(C)on2)n1,inconclusive
14,COc1ccccc1C1C(C(N)=O)=C(C)Nc2nc(-c3ccccc3Cl)nn21 (stereo unspecified),inconclusive
15,Brc1cnc(N2CCCC2)nc1N1CCCCC1,"inactive: -21% [stronger effect = higher value, 100% = Mn2+-driven binding gain fully reversed, screened at 10 µM (by protocol)]"
16,CCCCn1c(SCC(=O)Nc2cc(C)[nH]n2)nc2ccsc2c1=O,inactive: 9%
17,Cc1cc(Nc2ccccc2N2CCOCC2)n2ncnc2n1,inactive: 5%
18,CC(=O)N1CCc2cc(Br)cc(S(=O)(=O)NCCCN3CCCC(C)C3)c21 (stereo unspecified),inconclusive
19,CCNc1nc(NC(C)C)nc(N(C#N)CCOc2ccc(Cl)cc2Cl)n1,inactive: 16%
20,CC1(C)CC(=O)C2=C(C1)N(c1ccccc1C#N)C(N)=C(C#N)C2c1cccs1 (stereo unspecified),inconclusive
21,CCOC(=O)c1sc2ccc(S(=O)(=O)N3CCCCC3)cc2c1N,inconclusive
22,CSc1nc(C)c(Cl)c(C)c1C#N,inconclusive
23,CCN(c1ccc2c(c1)OCO2)S(=O)(=O)c1cc(Br)cc2c1N(C(=O)C1CC1)CC2,inconclusive

row,SMILES,inhibition
1,CC1CCN(CCNC(=O)C2CCCN(S(=O)(=O)c3cccc4nonc34)C2)CC1 (stereo unspecified),inconclusive
2,Cc1oc2cc3c(C(=O)OCCN(C)C)c(C)oc3cc2c1C(=O)OCCN(C)C,inactive: -4%
3,CC1(C)Oc2ccc3ccc(=O)oc3c2-c2cnoc21,inconclusive
4,COc1ccc(-c2nc(-c3ccc(Br)o3)no2)cc1OC,inactive: -9.4%
5,O=C(C1CCC1)N1CCc2cc(S(=O)(=O)N3CCN(c4ccccn4)CC3)ccc21,inactive: 13%
6,CC1CC(C)CN(S(=O)(=O)c2ccc3c(c2)oc(=O)n3CC(=O)N2CCOCC2)C1 (stereo unspecified),inconclusive
7,CC(C)N(C(=O)CSc1nnc(-c2cc3ccccc3cc2O)n1Cc1ccco1)C(C)C,inconclusive
8,Cc1cccc(N2CCN(c3nc4ccc(Cl)cc4n4cnnc34)CC2)c1C,inconclusive
9,CC1CCCCN1c1nnc(NC(=O)Cn2c(=O)oc3ccccc32)s1 (stereo unspecified),inactive: 24%
10,CCOc1nc(NCCc2ccc(OC)c(OC)c2)nc(NC(C)(C)CO)n1,inconclusive
11,CC(=O)N1CCc2cc(S(=O)(=O)NC(CC(C)C)C(=O)Nc3ccc4c(c3)OCCO4)ccc21 (stereo unspecified),inconclusive
12,COC(=O)c1ccc2c(=O)n(CCN3CCOCC3)c(SCC(=O)NC3CCCCC3)nc2c1,inconclusive
13,O=C(O)CCCC(=O)N1CCc2cc(S(=O)(=O)N3CCc4ccccc43)ccc21,inconclusive
14,CCCN(CCC)C(=O)CSc1nc2ccccc2c(=O)n1C1CCCC1,inconclusive
15,COCCn1c(=S)[nH]c2cc(C(=O)N3CCN(c4ccc(F)cc4)CC3)ccc2c1=O,inactive: 2%
16,COc1ccc(CCNC(=O)c2ccn[nH]2)cc1OC,inactive: 25%
17,CCC(C(=O)Nc1ncccn1)(C(F)(F)F)C(F)(F)F,inconclusive
18,Cn1c(=O)oc2cc(S(=O)(=O)Nc3ccc(Cl)cc3F)ccc21,inconclusive
19,O=S(=O)(NCc1cn2ccccc2n1)c1cc(F)ccc1F,inconclusive
20,O=C(CCC1N=C2c3ccccc3N=C(SCc3cccc(Cl)c3)N2C1=O)NCc1ccco1 (stereo unspecified),inconclusive
21,CCOC(=O)CCN(Cc1cccs1)S(=O)(=O)c1ccc(Cl)cc1,inconclusive
22,O=C1SC(c2ccccc2)=N/C1=C/c1ccco1,inconclusive
23,CCC(C)NC(=O)CN1C(=O)CC(C)(C)S(=O)(=O)c2ccccc21 (stereo unspecified),inconclusive

# An excerpt from above in order of count of non-hydrogen atoms, high to low.
row,SMILES,inhibition
11,CC(=O)N1CCc2cc(S(=O)(=O)NC(CC(C)C)C(=O)Nc3ccc4c(c3)OCCO4)ccc21 (stereo unspecified),inconclusive
8,Cc1cccc(N2CCN(c3nc4ccc(Cl)cc4n4cnnc34)CC2)c1C,inconclusive
9,CC1CCCCN1c1nnc(NC(=O)Cn2c(=O)oc3ccccc32)s1 (stereo unspecified),inactive: 24%
4,COc1ccc(-c2nc(-c3ccc(Br)o3)no2)cc1OC,inactive: -9.4%
16,COc1ccc(CCNC(=O)c2ccn[nH]2)cc1OC,inactive: 25%

# Continuation:

row,SMILES,inhibition
1,Cc1noc(C)c1S(=O)(=O)Nc1ccc(C(=O)N2CCc3ccccc3C2)cc1,inactive: -15%
2,O=[n+]1c2c(n([O-])c3cc(F)c(N4CCCC4)cc31)CCC2,inconclusive
3,Nc1nc(Cn2nnc(-c3ccccc3F)n2)nc(N2CCOCC2)n1,inactive: -5%
4,CCOc1ccc(OCC)c(NC(=O)CC2Oc3ccc(C)cc3NC2=O)c1 (stereo unspecified),inconclusive
5,CCOc1cc2[nH]c(=O)n(CC3CCC(C(=O)NC(C)CC)CC3)c(=O)c2cc1OCC (stereo unspecified),active: 63%
6,O=C(Nc1ccccc1C(=O)N1CCCC1)c1cccc(S(=O)(=O)N2CCCCC2)c1,inconclusive
7,O=C(CSc1c2c(nc3ccc(Cl)cc13)CCCC2)N1CCN(C(=O)c2ccco2)CC1,inactive: 32%
8,COC(=O)Nc1ccc(C)c2nsnc12,inconclusive
9,Cn1cnnc1SCC(=O)Nc1sc2c(c1C#N)CCCCC2,inconclusive
10,CC(=O)N1CCc2cc(S(=O)(=O)CCC(=O)Nc3cccc(F)c3)ccc21,inactive: 0.7%
11,COc1ccc(CCNC(=O)c2nnn(-c3ccc4c(c3)OCCO4)c2N)cc1OC,inconclusive
12,COc1cccc2cc(C(=O)N3CCN(C45CC6CC(CC(C6)C4)C5)CC3)c(=O)oc12,inconclusive
13,CCn1c(=O)cc(OCC(=O)Nc2ccc(Cl)cn2)c2ccccc21,inactive: 3%
14,O=C(CSc1nnc(Cn2c(=O)sc3ccccc32)n1CCc1ccccc1)N1CCCC1,inconclusive
15,CCOC(=O)N1CCN(c2c(NCCCN(CC)Cc3ccccc3)c(=O)c2=O)CC1,inactive: -23%
16,CCOC(=O)c1sc(=S)n(-c2cccc(OC)c2)c1N,"inactive: -4% [stronger effect = higher value, 100% = Mn2+-driven binding gain fully reversed, screened at 10 µM (by protocol)]"
17,CCOC(=O)c1ccc2nc(NC(NC(C)=O)(C(=O)OC)C(F)(F)F)sc2c1 (stereo unspecified),inconclusive
18,Cc1nc(C)c(C(=O)Nc2cccc(C)c2C)o1,inconclusive
19,O=c1cc(N2CCc3ccccc32)[nH]c(=O)n1Cc1ccc(F)cc1,inactive: -22%
20,CC(C)(C)NC(=O)C1CCCN(S(=O)(=O)c2cccc3cccnc23)C1 (stereo unspecified),inactive: -17%
21,O=C1CN(CC(=O)N2CCCCC2)c2ccccc2O1,inconclusive
22,CCOC(=O)c1cnc2nc[nH]n2c1=O,inactive: -11%
23,COc1ccc(NC(=O)CC2Oc3ccc(C)cc3NC2=O)cc1 (stereo unspecified),inconclusive

# 2 entries picked at random from the list so far, as already listed:
row,SMILES,inhibition
4,CCOc1ccc(OCC)c(NC(=O)CC2Oc3ccc(C)cc3NC2=O)c1 (stereo unspecified),inconclusive
2,O=[n+]1c2c(n([O-])c3cc(F)c(N4CCCC4)cc31)CCC2,inconclusive

# (cont.)

row,SMILES,inhibition
1,O=C(c1ccccc1)c1cccn1CC(=O)N1CCN(c2ccc(F)cc2)CC1,"inactive: 49% [stronger effect = higher value, 100% = Mn2+-driven binding gain fully reversed, screened at 10 µM (by protocol)]"
2,CCn1c(C)cc(=S)c2ccccc21,inactive: 5%
3,CCc1ccccc1NC(=O)c1nnn(CC(=O)Nc2cccc(C)c2)c1N,inconclusive
4,O=C1c2ccccc2C(Nc2ccc3c(c2)OCCO3)N1Cc1ccccc1 (stereo unspecified),inactive: -5%
5,Cc1ccc(S(=O)(=O)C(C#N)c2nc3ccccc3nc2N2CCCCC2)cc1 (stereo unspecified),inconclusive
6,O=CN1CC(=O)N(c2ccccc2)c2c([nH]c3ccccc23)C1,inactive: 11%
7,CCOc1ccccc1NC(=O)CN(c1ccc(C)cc1)S(=O)(=O)c1c(C)n[nH]c1C,inconclusive
8,CCOC(=O)N1CCC(Nc2c(N3CCN(c4cccc(C(F)(F)F)c4)CC3)c(=O)c2=O)CC1,inactive: 6%
9,C=CCn1c(=O)c(C#N)cc2c(=O)n3ccccc3nc21,inconclusive
10,CCN1C(=O)c2ccccc2S(=O)c2ccc(C(=O)NCCCN3CCCC3=O)cc21 (stereo unspecified),inactive: -1%
11,CCOc1ccc(-n2cc(C(=O)N3CCCCCC3)c3cc(OC)c(OC)cc3c2=O)cc1,inactive: 9%
12,CCCCNC(=O)c1ccc2nc(-c3ccco3)c(-c3ccco3)nc2c1,inconclusive
13,COc1cccc(-c2nnc(Nc3nc4c(F)cccc4s3)o2)c1,inconclusive
14,Cc1cc2c(c(=O)n1C)C(Cc1ccccc1)C(C#N)=C(N)O2 (stereo unspecified),inactive: -16.3%
15,Cc1ccc(NC(=O)CSc2nnc(Cn3c(=O)sc4ccccc43)n2C)cc1,inconclusive
16,Cn1cccc1Cc1nnc(SCC(=O)Nc2nccs2)n1CCc1ccccc1,inactive: 8%
17,COc1cc(C(=O)Nc2cc(Cl)ccc2C)c(-n2cnnn2)cc1OC,inactive: -9.5%
18,O=C(Cn1nnc(-c2ccc(S(=O)(=O)N3CCCC3)cc2)n1)NCC1CCCO1 (stereo unspecified),inconclusive
19,CCOC(=O)N1CCN(C(=O)Cn2ncc3ccccc32)CC1,inconclusive
20,CN(C)c1ccc(NC(=O)CSc2nc3ccccc3c(=O)n2C2CCCCC2)cc1,inconclusive
21,Cc1cc(C(F)(F)F)nc(NCc2cccnc2)n1,inconclusive
22,Oc1c(Cl)cc(Cl)c2c1NCCC2,inconclusive
